According to PubChem BioAssay AID743255 (National Center for Advancing Translational Sciences (NCATS), 2014):
About 910 (0.23%) of roughly 390,000 compounds were called active. This list was built around the results that the source calls inconclusive (neither active nor inactive); the mix of calls is not that of the screen. Calls come from the whole dose curve; as a rule, active = well fitted inhibition curve with a large enough effect; inconclusive = small, poorly fitted or top-dose-only effect; inactive = no such curve, though single readings can be large or run the other way. Potencies of inconclusive entries are doubtful fits and often do not repeat.

The chains behind the UniProt entries cited, without tags or fusion partners. Where a name states a change or a piece, a line headed by the entry shows the natural chain unless it says otherwise.
UniProt O94782: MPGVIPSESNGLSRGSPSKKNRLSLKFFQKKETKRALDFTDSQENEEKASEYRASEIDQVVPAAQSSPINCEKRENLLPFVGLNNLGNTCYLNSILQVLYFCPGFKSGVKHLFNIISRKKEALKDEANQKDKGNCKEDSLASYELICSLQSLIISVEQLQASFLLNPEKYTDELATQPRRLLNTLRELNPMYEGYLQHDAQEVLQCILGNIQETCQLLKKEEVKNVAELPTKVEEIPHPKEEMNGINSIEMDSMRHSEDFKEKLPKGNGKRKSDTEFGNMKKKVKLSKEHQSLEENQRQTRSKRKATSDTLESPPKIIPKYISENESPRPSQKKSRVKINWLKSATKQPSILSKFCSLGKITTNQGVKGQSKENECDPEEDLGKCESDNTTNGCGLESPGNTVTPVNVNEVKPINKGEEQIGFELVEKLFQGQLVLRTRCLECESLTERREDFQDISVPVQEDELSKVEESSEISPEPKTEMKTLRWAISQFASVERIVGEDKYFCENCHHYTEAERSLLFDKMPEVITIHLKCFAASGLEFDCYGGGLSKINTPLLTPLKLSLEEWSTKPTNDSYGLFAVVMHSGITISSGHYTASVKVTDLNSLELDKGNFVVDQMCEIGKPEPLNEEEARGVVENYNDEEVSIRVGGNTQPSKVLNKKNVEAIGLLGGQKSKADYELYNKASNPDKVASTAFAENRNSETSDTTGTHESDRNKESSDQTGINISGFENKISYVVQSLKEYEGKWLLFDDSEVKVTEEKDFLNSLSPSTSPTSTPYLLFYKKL

molecular target: Ubiquitin carboxyl-terminal hydrolase 1 (Homo sapiens) (UniProt O94782); experiment: Inhibitors of USP1/UAF1: Primary Screen; settings: recombinant USP1/UAF1, Ub-Rhodamine cleavage fluorescence; activity change, negative = inhibition: at 57.1 µM (top of the series); note: nearly all actives have a fitted effect of over 60% in size
In short: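 High-throughput fluorogenic screen: 1nM USP1/UAF1 complex, Ub-Rho substrate 150nM final, 50mM HEPES pH 7.8 with 0.5mM EDTA, 0.1 mg/ml BSA, 1mM TCEP and 0.01% Tween-20.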
% is set by controls: 0 for no effect and ±100 for the full control effect; potency is the fitted concentration of half-maximal effect.

SMILES | Potency | activity change, negative = inhibition
O=C(Nc1ccccc1F)C1CCCN(S(=O)(=O)c2ccc(-n3cnnn3)cc2)C1 (stereo not given) | inconclusive: 25.1 µM [inhibitor, partial curve, poor fit] | –
CCOc1cccc2sc(N(CCN(C)C)C(=O)c3cc4ccccc4cc3OC)nc12 | – | inactive: -7.66%
Cc1nn(-c2ccccc2)c(C)c1C(=O)OC(C)C(=O)Nc1ccc(C(N)=O)cc1 (stereo not given) | inconclusive: 3.98 µM [inhibitor, full curve, poor fit] | –
CCN(CC)c1nc(C)c(C(=S)Nc2cc([N+](=O)[O-])ccc2Cl)s1 | inconclusive: 35.5 µM [inhibitor, partial curve, poor fit] | –
Fc1ccc(-n2ncc3c(Nc4cccc(Cl)c4)ncnc32)cc1 | inconclusive: 2.51 µM [inhibitor, full curve, poor fit] | –
COc1ccccc1C1C=C(c2ccc(C(C)C)cc2)Nc2nnnn21 (stereo not given) | inconclusive: 0.794 µM [inhibitor, full curve, poor fit] | –
CCN(CC)CCCNC(=O)c1cn(C)c(=O)c2c1c1ccccc1n2C | inconclusive: 12.6 µM [inhibitor, partial curve, poor fit] | –
Cc1cccc(NC(=O)CSc2nnc(-c3ccco3)c(-c3ccco3)n2)c1C | – | inactive: -7.99%
Cc1cc(C)c2c(c1)c(C)cc1nnc(SCC(=O)c3ccc(F)cc3)n12 | inconclusive: 1.78 µM [inhibitor, full curve] | –
COc1ccc(NC(=O)CN2C(=O)COc3ccc(S(=O)(=O)N4CCCCC4)cc32)cc1OC | inconclusive: 7.94 µM [inhibitor, partial curve] | –
COc1cc(C(=O)NNC(=O)/C=C/c2ccco2)cc(OC)c1OC | – | inactive: -15.7%
CC[n+]1cc(C)ccc1/C=C/c1ccc(N(C)C)cc1 | inconclusive: 39.8 µM [inhibitor, partial curve] | –
Cc1cccc(CCN(C(=O)c2csnn2)C(C(=O)NC2CCCC2)c2ccco2)c1 (stereo not given) | inconclusive: 44.7 µM [inhibitor, single point] | –
C=CCNC(=O)c1onc(CSc2ccccc2CC)c1C(=O)O | inconclusive: 44.7 µM [inhibitor, partial curve, poor fit] | –
Cc1ccc(OCCSc2nc(C)c(Cc3ccccc3)c(=O)[nH]2)cc1 | inconclusive: 0.398 µM [inhibitor, full curve, poor fit] | –
CCCCCOc1ccc(CSC(=N)N)cc1[N+](=O)[O-] | – | inactive: -3.47%
COc1ccccc1C(=O)Nc1c(C(=O)Nc2ccccc2F)oc2ccccc12 | – | inactive: -2.14%
CCOc1ccc(C(c2c(O)cc(C)n(Cc3ccco3)c2=O)N2CCCCC2)cc1 (stereo not given) | inconclusive: 0.282 µM [inhibitor, full curve, poor fit] | –
Cc1ccc2c(c1)COc1c3ccc(C(=O)NC(C)C)cc3nn1-2 | inconclusive: 1.41 µM [inhibitor, full curve, poor fit] | –
O=C(NCCCn1ccnc1)c1cc(C(=O)C2CC2)c[nH]1 | – | inactive: -12.5%
COc1ccc(C)cc1NC(=O)c1ccc([N+](=O)[O-])cc1[N+](=O)[O-] | – | inactive: -8.9%
O=C1[C@H]2CCCC[C@H]2C(=O)N1CCCCN1CCN(c2nsc3ccccc23)CC1 | inconclusive: 0.178 µM [inhibitor, full curve, poor fit] | –

SMILES | Potency | activity change, negative = inhibition
CCNC(=O)c1ccc(C2SCC(=O)N2CCc2ccccc2)cc1 (stereo not given) | inconclusive: 0.316 µM [inhibitor, full curve, poor fit] | –
Cc1ccc2nc(-c3cc(NC(=O)COc4ccc(C)c(C)c4)ccc3Cl)oc2c1 | inconclusive: 1.78 µM [inhibitor, full curve, poor fit] | –
CC1=C(C(=O)OC2CCCCCCC2)C(c2cc3c(cc2Br)OCO3)CC(=O)N1 (stereo not given) | inconclusive: 2.82 µM [inhibitor, full curve] | –
C=CC[C@@H](CC(=O)N(CCO)Cc1ccccc1)C(=O)N[C@H](C)COC(=O)[C@@H](CC=C)Cc1ccc(F)cc1 | – | inactive: -6.19%
O=C(COc1ccc(S(=O)(=O)Nc2ccc(Cl)cc2)cc1)N1CCOCC1 | – | inactive: -14.6%
CC(C)(C)[C@H]1C=C(C(=O)NCc2nc3ccccc3[nH]2)O[C@@H](OCCCCO)C1 | inconclusive: 0.398 µM [inhibitor, full curve, poor fit] | –
O=C(CCCc1ccccc1)NC1CC(=O)N(c2ccc(F)cc2)C1 (stereo not given) | inconclusive: 0.794 µM [inhibitor, full curve] | –
CC(C(=O)NC(N)=O)N1C(=O)NC(c2ccccc2)(c2ccccc2)C1=O (stereo not given) | – | inactive: -8.61%
CCn1c(-c2c[nH]c3ccccc23)n[nH]c1=S | inconclusive: 0.355 µM [inhibitor, full curve, poor fit] | –
CCOc1ccc(S(=O)(=O)Nc2ccccc2C(=O)NCC2CCCO2)cc1 (stereo not given) | inconclusive: 39.8 µM [inhibitor, single point] | –
CCCN1C(=O)c2ccccc2NC1c1ccc(Cl)c(Cl)c1 (stereo not given) | – | inactive: -24%
Cc1ccc(C)c(S(=O)(=O)NC(C)CCc2ccccc2)c1 (stereo not given) | inconclusive: 0.355 µM [inhibitor, full curve, poor fit] | –
CCOC(=O)c1noc2ncnc(Nc3cccc(OC)c3)c12 | – | inactive: -5.96%
CCOC(=O)c1c(NC(=O)CSc2cn(CCNC(=O)c3c(F)cccc3F)c3ccccc23)sc2c1CCC2 | inconclusive: 31.6 µM [inhibitor, partial curve, poor fit] | –
O=C(CCCSc1ccc(Cl)cc1)Nc1cc(S(=O)(=O)N2CCOCC2)ccc1O | – | inactive: -11.4%
CN(C)S(=O)(=O)c1ccc2c(c1)/C(=C/c1cc3c([nH]1)CCCC3)C(=O)N2 | active: 31.6 µM | –
CCCCOc1ccc(-c2nc(/C=N/c3nccs3)c(O)o2)cc1 | – | inactive: -7.24%
Cc1nc(-c2ccccc2)sc1-c1ccc(SCC(=O)NCc2ccccc2Cl)nn1 | inconclusive: 2.82 µM [inhibitor, full curve, poor fit] | –
Cc1cccc(N(CC(O)CON=C2c3ccccc3-c3ccccc32)S(C)(=O)=O)c1 (stereo not given) | inconclusive: 0.631 µM [inhibitor, full curve, poor fit] | –
O=C(O)c1cccc(-c2ccc(/C=N/Nc3ccc([N+](=O)[O-])cc3)o2)c1 | inconclusive: 14.1 µM [inhibitor, partial curve] | –
CCOC(=O)CSc1nc(C2CC2)cc(-c2ccc(Cl)cc2)c1C#N | – | inactive: -21.1%
COc1ccc(OC)c(S(=O)(=O)NCCS(=O)(=O)N2CCN(c3ccccc3)CC2)c1 | inconclusive: 50.1 µM [inhibitor, partial curve, poor fit] | –

SMILES | Potency | activity change, negative = inhibition
Cc1ccc(C)c(NC(=O)C2CCCN(c3ncnc4onc(C)c34)C2)c1 (stereo not given) | inconclusive: 4.47 µM [inhibitor, partial curve] | –
O=C(Nc1cccc(C(F)(F)F)c1)c1cccnc1N1CCN(c2ccccc2)CC1 | inconclusive: 39.8 µM [inhibitor, single point] | –
CCN(CC(=O)Nc1ccc(OC)cc1)C(=O)c1ccc(NS(=O)(=O)c2ccc(C(C)=O)cc2)cc1 | – | inactive: 2.37%
COc1ccc(N2CCN(C(=O)C3CCCN(S(=O)(=O)c4cccc5cccnc45)C3)CC2)cc1 (stereo not given) | inconclusive: 25.1 µM [inhibitor, partial curve] | –
O=C(CCNC(=O)c1ccccc1Cl)Nc1nc(-c2ccccc2Cl)cs1 | inconclusive: 44.7 µM [inhibitor, partial curve, poor fit] | –
COc1ccc(Oc2c(OC)cc(NCc3ccc(CN)cc3)c3ncccc23)cc1 | inconclusive: 7.08 µM [inhibitor, partial curve] | –
Cc1ccc(Cl)cc1NC(=O)c1sc(-n2nc(C)c(Cc3ccc4c(c3)OCO4)c2C)nc1C | inconclusive: 1 µM [inhibitor, full curve, poor fit] | –
O=S(=O)(Nc1ccc(O)c2ccccc12)c1ccc(OC(F)(F)F)cc1 | inconclusive: 28.2 µM [inhibitor, partial curve] | –
Cc1ccccc1NC(=O)CSc1nc(N2CCCCC2)nc(N2CCCCC2)n1 | – | inactive: -0.72%
Nc1ccn([C@H]2C[C@H](O)[C@@H](CO)O2)c(=O)n1 | inconclusive: 0.398 µM [inhibitor, full curve] | –
Oc1ccc2ccccc2c1N=Nc1ccc(F)cc1 | – | inactive: -6.31%
O=C(NCCCc1ccccc1)c1ccccc1 | – | inactive: 1.35%
CN(C)CCCC1(O)c2ccccc2CCc2ccccc21 | inconclusive: 63.1 µM [inhibitor, partial curve, poor fit] | –
O=C(CSc1ncnc2c1oc1ccccc12)Nc1ccccc1F | inconclusive: 15.8 µM [inhibitor, partial curve] | –
COc1ccc(C(=O)C2C(c3ccc(-c4ccccc4[N+](=O)[O-])o3)NC(=O)NC2(O)C(F)(F)F)cc1 (stereo not given) | inconclusive: 31.6 µM [inhibitor, partial curve] | –
Cc1cc(NC(=O)CCC(=O)N(Cc2ccco2)C2(C(=O)NC3CCCC3)CCCCC2C)no1 (stereo not given) | inconclusive: 14.1 µM [inhibitor, partial curve, poor fit] | –
Cc1cc(C)c2c(=O)cc(C(=O)Nc3sc4c(c3C(=O)NCC3CCCO3)CCCC4)oc2c1 (stereo not given) | inconclusive: 0.282 µM [inhibitor, full curve, poor fit] | –
O=C(/C=C/c1c[nH]c2ccccc12)c1ccccc1 | – | inactive: -25.2%
COc1cccc2c1C(=O)c1c(O)c3c(c(O)c1C2=O)CC(O)(C(C)=NNC(=O)c1ccc(Cl)c(Cl)c1)CC3OC1CC(N)C(O)C(C)O1 (stereo not given) | inconclusive: 31.6 µM [inhibitor, single point] | –
CCOC(=O)/C=C(\C)Sc1cc(O)c2ccccc2c1O | active: 7.94 µM | –
CCC(Sc1nccn1C)C(=O)Nc1nnc(C)s1 (stereo not given) | inconclusive: 1 µM [inhibitor, full curve, poor fit] | –

Whole records, looked up by structure.
`Cc1cc(C)c2c(c1)c(C)cc1nnc(SCC(=O)c3ccc(F)cc3)n12` is listed as Potency: inconclusive: 1.78 µM [inhibitor, full curve]
`CCCCOc1ccc(-c2nc(/C=N/c3nccs3)c(O)o2)cc1` is listed as activity change, negative = inhibition: inactive: -7.24%
`O=C1[C@H]2CCCC[C@H]2C(=O)N1CCCCN1CCN(c2nsc3ccccc23)CC1` is listed as Potency: inconclusive: 0.178 µM [inhibitor, full curve, poor fit]
`Nc1ccn([C@H]2C[C@H](O)[C@@H](CO)O2)c(=O)n1` is listed as Potency: inconclusive: 0.398 µM [inhibitor, full curve]
